Experimental data: publication doi:10.1101/2021.07.02.450968
Where two headings read alike, the source gives them in different places. No constants are given. Whether binding was seen depends on the method and setting. In cells and extracts the contact can be indirect. Some results given as binding are weak or reduced against the parent protein; the word gives no strength. For some of these results: Tags and fused reporters may be left off the sequences shown.

The chains behind the UniProt entries cited, without tags or fusion partners.
UniProt P04150: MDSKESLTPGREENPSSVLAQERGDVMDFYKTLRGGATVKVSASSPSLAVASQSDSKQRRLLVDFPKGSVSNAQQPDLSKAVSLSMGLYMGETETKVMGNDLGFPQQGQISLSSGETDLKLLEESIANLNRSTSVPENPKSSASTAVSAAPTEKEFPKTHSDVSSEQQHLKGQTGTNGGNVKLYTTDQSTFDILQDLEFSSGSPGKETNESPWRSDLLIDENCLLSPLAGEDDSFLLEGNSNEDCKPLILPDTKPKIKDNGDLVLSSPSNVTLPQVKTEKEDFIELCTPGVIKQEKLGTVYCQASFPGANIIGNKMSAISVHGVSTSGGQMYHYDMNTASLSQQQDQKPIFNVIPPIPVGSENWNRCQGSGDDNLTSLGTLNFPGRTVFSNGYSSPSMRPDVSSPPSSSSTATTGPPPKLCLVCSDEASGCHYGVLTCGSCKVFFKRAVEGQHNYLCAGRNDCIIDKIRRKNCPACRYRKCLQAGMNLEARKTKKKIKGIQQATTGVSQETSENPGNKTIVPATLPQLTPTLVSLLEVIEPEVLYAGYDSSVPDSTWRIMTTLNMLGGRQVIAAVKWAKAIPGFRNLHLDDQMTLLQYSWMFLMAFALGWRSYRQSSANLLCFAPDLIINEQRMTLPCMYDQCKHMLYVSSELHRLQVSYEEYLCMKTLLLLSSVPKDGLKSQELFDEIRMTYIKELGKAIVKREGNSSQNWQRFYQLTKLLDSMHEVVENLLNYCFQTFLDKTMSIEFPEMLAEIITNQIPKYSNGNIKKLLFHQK
UniProt P15090: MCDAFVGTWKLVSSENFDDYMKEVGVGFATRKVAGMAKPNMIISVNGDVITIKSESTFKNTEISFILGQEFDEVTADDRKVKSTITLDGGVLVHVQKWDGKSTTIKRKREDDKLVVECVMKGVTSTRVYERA

Key:
Assay in all cases: FRET or BRET
[1] = target: GR-dsRed (human glucocorticoid receptor, α sub-type, fused to dsRed fluorescent protein) (human) (UniProt P04150)
[2] = target: GR-dsRed (human glucocorticoid receptor, α sub-type, fused to dsRed fluorescent protein) (human) (UniProt P04150); remark: listed apart in the source
[3] = target: GR-dsRed (human glucocorticoid receptor, α sub-type, fused to dsRed fluorescent protein) (human) (UniProt P04150); remark: listed apart in the source

binding [1]	binding [2]	binding [3]	Molecule
no binding (condition: in the cytosol)	binds	–	GFP-FABP4 (human fatty acid binding protein 4, GFP-tagged) (from UniProt P15090 1-132)
–	binds	no binding (condition: in the cytosol)	GFP-FABP1 (human fatty acid binding protein 1, GFP-tagged) (protein, UniProt P07148 1-127) MSFSGKYQLQSQENFEAFMKAIGLPEELIQKGKDIKGVSEIVQNGKHFKFTITAGSKVIQNEFTVGEECELETMTGEKVKTVVQLEGDNKLVTTFKNIKSVTELNGDIITNTMTLGDIVFKRISKRI
